Test results reported in the supplement of paper PMC3334620.
In all, about 33,000 sequences were measured (“E-score (-0.5 to 0.5)”: median about -0.015, highest 2% from about 0.3 on). The list shows a part of the results.

Biological target: T1, Abf1 (UniProt P14164)
T1 sequence: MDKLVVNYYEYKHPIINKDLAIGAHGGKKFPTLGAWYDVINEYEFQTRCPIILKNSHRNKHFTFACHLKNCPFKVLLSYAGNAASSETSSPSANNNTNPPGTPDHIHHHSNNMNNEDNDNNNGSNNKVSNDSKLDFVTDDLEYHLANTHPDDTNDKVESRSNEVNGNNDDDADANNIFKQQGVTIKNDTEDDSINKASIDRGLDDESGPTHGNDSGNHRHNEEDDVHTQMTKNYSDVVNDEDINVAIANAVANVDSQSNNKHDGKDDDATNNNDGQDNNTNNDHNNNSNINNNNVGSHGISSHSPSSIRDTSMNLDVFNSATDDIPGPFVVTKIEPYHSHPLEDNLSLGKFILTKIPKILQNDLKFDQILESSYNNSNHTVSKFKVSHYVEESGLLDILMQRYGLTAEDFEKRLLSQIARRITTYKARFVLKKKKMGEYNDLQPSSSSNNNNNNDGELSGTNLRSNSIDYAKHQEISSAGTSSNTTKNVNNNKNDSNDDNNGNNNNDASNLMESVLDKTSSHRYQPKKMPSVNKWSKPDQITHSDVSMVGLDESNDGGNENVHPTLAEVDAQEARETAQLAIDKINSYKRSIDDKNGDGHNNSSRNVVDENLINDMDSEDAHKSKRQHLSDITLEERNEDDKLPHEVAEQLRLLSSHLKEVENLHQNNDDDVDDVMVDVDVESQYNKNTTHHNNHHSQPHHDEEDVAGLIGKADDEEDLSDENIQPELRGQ
Test: PBM E-score (8-mer binding enrichment) (E-score (-0.5 to 0.5)); higher = stronger / more preferred TF binding
Conditions: protein concentration: 200 nM; construct: GST-full length
In short: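 Detection of bound protein used fluorescent anti-GST, with scans normalised by masliner. The proteins were GST-tagged yeast transcription factors applied at about 100-200 nM to universal all-10-mer Agilent arrays made double-stranded by primer extension. Each ungapped eight-base word, pooled with its reverse complement, was scored with an E-score from the Universal PBM Analysis Suite.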

Sequence	PBM E-score
CACACTAG	0.00749
TGACAGCA	0.183
ATGGAGCA	-0.0812
GCCCTACC	-0.149
CCGCCGTC	0.334
GCCTACCC	-0.25
ATCGGAAA	0.0872
GTTCAAGA	0.108
GCGGCATA	0.106
AACTCCTC	-0.145
AGGACATC	0.113
CAGGCGAG	-0.101
TACTTACA	0.0659
TAATGAAA	0.12
ATGGTGGG	-0.331
CGCGCAGA	0.103
TCGTGAAA	0.205
TAAATACA	0.104
GTGACAAA	0.412
GGACCCGA	-0.246
AACCTTAG	-0.103
AACTCTCG	-0.077
GGACTTTA	-0.0103
TGTGCTAA	0.0655
AAATAATA	0.294

Sequence	PBM E-score
AACGTGCT	-0.131
GCACCCGA	-0.146
AGACTTAT	-0.0813
CAGTTATG	-0.103
AGGCGTCG	0.036
CCCCGCCA	-0.0278
AGTATGCG	0.00272
AGCAGGGG	-0.223
ATGGTGCC	-0.164
CGGCAGAC	-0.0792
ACCAACGG	-0.126
AGCGGTTG	0.0211
CTGTGCTC	-0.0915
GAACTCAA	-0.256
GCACTAAC	-0.083
GAAAGGGA	-0.0394
AGCGGCTG	-0.107
CACAGTCC	-0.0715
AATTCAGC	-0.0342
ATCCTGGC	-0.0263
AATTTTGT	0.137
AGCACGAC	0.0471
TGACATAA	0.351
AAGGTAAA	0.057
CGCGTCGC	-0.0158

For reference, some entries already given.
Sequence	PBM E-score
CTGTGCTC	-0.0915
GAACTCAA	-0.256
GCACTAAC	-0.083
GAAAGGGA	-0.0394
AGCGGCTG	-0.107

Continuation.

Sequence	PBM E-score
ACCATTAT	0.14
AACAATCT	-0.074
AGAAGTGG	-0.122
TATTAACA	0.237
AATGCGAG	0.0328
AGTCGGTG	-0.25
GCACCTAA	0.0243
CACGATGG	0.0243
GGACTAGA	-0.175
ACGCGAAT	-0.0212
TAAACGAA	0.259
AGATGACC	0.132
ATGAAGGC	-0.22
CTTAACCA	0.0442
ACATGTAT	0.00856
CGCCCTCA	-0.224
CGCAAGCA	0.173
ACCGCAGG	-0.182
AACATAGA	-0.124
CATGTGAC	-0.106
AACTTCTT	0.0816
AGGGCGAT	-0.118
CCATATCC	-0.0911
CGTGCGAA	0.223
GCCTTCGC	-0.273

Sequence	PBM E-score
CAAGGCAA	-0.1
GGTACGTA	0.0572
ACCCAAAA	-0.0143
AGCAGACT	-0.0452
ACCCGGCG	-0.111
TATATACA	0.198
ACATACGT	0.033
CACACCCC	-0.322
CTATTTCC	0.144
CAGACTGA	-0.181
GAATTTAC	0.0972
ACAATGAC	0.107
CGCCTGAA	0.0846
AGGGGGTG	-0.25
ATAGGTCA	0.143
GACAAGGC	0.081
ACGGGAAA	0.113
ACAGGCTG	-0.175
GCTCGAGC	0.0628
AATAACTG	0.0995
GGCCAACC	-0.177
TATACGAA	0.368
AATTCCAC	0.0539
AATGATAA	0.408
ACACTCCT	-0.188

Sequence	PBM E-score
AGAACTGA	0.0656
CCTTAGCA	-0.151
GCGATACC	-0.0637
ATCGACGC	0.0916
TCTGGCCA	-0.162
ATGGGGCG	-0.0303
ATTTAGTA	0.241
GGATTAAA	-0.136
GCGGTTGA	0.0217
GGCCAGAC	-0.132
ACTGGCAA	-0.0435
ACCGTAAA	0.14
AAATGTGG	0.128
GCGCAAAA	0.0585
AAACGTAT	0.19
GAGCGCGC	-0.0752
GGACCCCC	-0.249
CACGTTGC	0.115
AGGGAGTA	-0.187
AAGTTCAT	-0.223
ACTTGCAC	-0.011
AGACCACC	-0.221
AGGCGGCC	-0.186
AGGTCGAC	-0.0264
ATGTATGG	-0.135

Sequence	PBM E-score
CCCCTGAA	-0.126
AGACCCCC	-0.314
ATCTATTA	0.0474
ACGCACTA	0.0452
AGCGCGGA	-0.166
CTTTGCCC	-0.172
AGCACGAT	0.264
CCTTCAAG	-0.208
AAGGGTAG	-0.092
GCTAGTTA	0.0469
CATCCAAG	-0.136
ACGAGCCC	0.0182
GCAGAATA	0.0578
CAACTCAC	0.00633
ATACGGGC	0.26
CAGTCTGG	-0.31
TGAACAAA	0.172
AGGATATG	0.157
ATTCTATG	-0.0171
ATACCGAA	0.189
CCGCCTTA	-0.136
CCGCACGG	0.0967
ACAATGCA	0.105
CAGGTTGG	-0.128
CGAAAGCC	-0.237

Sequence	PBM E-score
CGTGGTTA	0.242
ATGTTCAA	0.113
AGATTCCA	0.0937
AAGACACG	0.137
AGTCCGTC	0.0966
AGTACTAA	0.1
AAGTTCCT	0.0113
AGTATCTG	-0.0657
ACTGTTGA	-0.118
ATAGTAGA	0.0823
ACGATGCA	0.0908
GAGGTATA	0.0678
TATATGAA	0.0754
CTCCGAAG	-0.145
AACGGCAC	0.166
CAGAAATA	0.0831
ATCATCGC	0.301
CCTTTGTC	0.017
CTACAGAA	-0.0367
GAGCTCGA	0.0275
ATGCCCTC	-0.00994
TCCGGGAA	0.0377
CAGAGATC	-0.151
TAGGCACA	-0.153
GTGATTTA	0.317

Sequence	PBM E-score
CCCTTGTA	-0.119
AGACGACG	0.235
ATCCAGTA	-0.1
GCATGCCC	-0.0869
AAAAGGAG	-0.268
GGGTTGAC	-0.144
AATCGTGG	0.125
CCCTCACG	-0.0983
AATTTTTG	0.211
AAGTCAAA	-0.0446
TGAGGACA	0.0941
AAGCACGG	0.0624
GCTCGCAC	-0.00456
CCTACAGC	-0.195
TCTAACCA	0.0286
CGGCCGGA	-0.18
CCGCTTAG	-0.281
CCCACAGG	-0.0723
AAACATTA	-0.152
CTTGTCGC	-0.0296
TATCGAAA	0.112
TACGCATA	0.108
AGGGAACA	-0.253
AACTAAAG	0.0418
ACTGAGAT	-0.075

Sequence	PBM E-score
ATCAAGGG	0.0736
AAATATGG	0.00692
CTTGGGCC	-0.163
ACGACGAT	0.315
CGAGCACC	0.00575
CAGGATTA	-0.177
GTATCAAC	0.0912
GCCCATCA	-0.281
AGACCTTC	-0.111
CCTGACTC	-0.142
CATCTTCA	-0.0966
CAGAGATG	-0.0561
CTCTCGCA	-0.126
CCCAAGAC	-0.141
AACTGAAA	0.0208
GCGATCCC	-0.13
GCGCCCGC	-0.161
CATCGGTC	-0.145
CCAGCGCG	-0.156
GCAAGAAC	0.0235
TCAATTGA	0.164
ACTACCGG	-0.0793
GCAATGGA	-0.0961
CTGGGGCC	-0.366
AAACAAGT	-0.139

Sequence	PBM E-score
AAGTGGCA	-0.113
GATGCCCC	-0.172
AGCCCCGC	-0.217
GTTAAACA	0.106
CGCTAATA	-0.002
ATTGACCA	0.0193
TCGCAACA	-0.014
CTGCCTCA	-0.198
GATTAGCA	0.0185
CTGACCAA	0.102
AGCAACCT	-0.209
GGGGAACC	-0.304
TGGTCACA	0.0583
ACCGGGTG	-0.0777
ACCTGACG	-0.0385
ACCGTGAT	0.213
GCACCCCC	-0.312
CTCTCGTA	0.0372
ACCACGTC	0.0678
AGCAGTAC	-0.0878
GCAATTCC	0.0466
ACCACATC	0.136
ATGTTGAG	-0.0175
AACTTTGG	0.0844
AACAGGTG	-0.0707

Sequence	PBM E-score
CCTCAGAC	-0.1
GGGGTACA	-0.275
ACAATACC	0.121
CCAAATCG	-0.00456
ACGTCCCT	0.141
ACGATAAA	0.352
ATATCTGC	0.179
CTCAAACA	0.0674
TAGGCCCA	-0.36
ACTGCCCG	-0.0649
GTTGACTA	-0.164
ACATGTAA	0.142
AACTCTCT	-0.138
GCCTTGGA	-0.00196
AGAGGCTG	-0.248
AAAGTAGG	0.155
TAAATTAA	0.0895
ATGTGAAC	-0.0834
AGCGCTTA	0.00773
ACGACAAC	0.265
ATCTAGCA	0.0196
GGCGCTTA	-0.192
ATATTAAT	0.216
CCTTGATA	0.114
ATTGCACC	-0.0482

Sequence	PBM E-score
ACTGCTTA	-0.158
CACCATTA	0.0146
AGAGCCAG	-0.192
ACCACAGA	-0.0898
AAATCGTC	0.347
ATATGACG	0.243
CATCTCGG	0.0152
CTAAAGAA	-0.0384
ACCGCGGG	-0.173
AACGCTTC	-0.0829
AACCACCA	-0.263
ATGAAAAG	-0.0286
CTCTAGAC	-0.077
ACATACTA	0.109
AGCCGCAT	-0.0289
ATCGCAAA	0.0945
GAGCACTA	0.0823
GCGCTGGA	-0.338
TATTGCCA	-0.104
ATTCGCTC	0.0285
CGAAGTCA	0.2
GCTAATCA	0.142
AAGATGGA	0.0911
GCTGCCCA	-0.162
AGCGTTGG	-0.0424

Sequence	PBM E-score
GATGTTCC	-0.0259
ACAGCTCC	-0.172
ATTCGTAC	0.408
AAGAGATA	0.0962
TACAATCA	0.0982
AAATGTAG	0.122
AATCTTGT	0.147
GTCGCAGA	0.112
ACCCTCCC	-0.139
CCATTTGA	-0.0559
CGTGCTAA	0.214
GATCGACA	0.013
ACGTCAAC	0.0554
AACGAAGG	-0.0556
CTTCAGTC	-0.07
TCTTCGCA	0.00277
TACTCCAA	-0.0006
GATCAGGC	-0.176
ATTGAGTG	-0.00414
TCCAAGGA	-0.181
AGTCTAGA	-0.087
CCTTCAGC	-0.112
CCGCGGAG	-0.166
CAGACATA	-0.0847
ATACATCA	0.158

A second format for part of the listing above.
Sequence | PBM E-score
ACATGTAT | 0.00856
CGCCCTCA | -0.224
CGCAAGCA | 0.173
ACCGCAGG | -0.182

Additional entries.

Sequence	PBM E-score
AAACGGCA	0.213
ACTAGCGA	0.216
GTCTTCAA	-0.0175
CAGAGGTA	-0.128
GATGCCGC	-0.168
GGATCCAC	-0.0994
GGGCTCAA	-0.161
AATTCGCA	-0.0529
CTAACACC	-0.0811
CGAGCTCG	0.286
GGCGTAGA	-0.107
CGCGTAGC	0.0138
CCCTACGG	0.185
GATCACGA	0.301
ATACTCGC	0.127
CTAGAATA	0.0856
GACACTAC	-0.0654
CATGGTTA	0.0529
CGAACCCA	0.0711

3 records picked at random from those above, as already listed:
Sequence	PBM E-score
ACTAGCGA	0.216
GGGCTCAA	-0.161
AATTCGCA	-0.0529
